Here are results for 69 sequences from PubChem BioAssay AID1347426 (Functional Genomics Laboratory (NCATS/FGL), 2020).

The campaign covered roughly 31,000 sequences. About 1,400 (4.5%) were called active.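 Rule for the calls: active = median seed-adjusted z-score above 1 or below -1; inactive = the rest.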 Some of the results follow.

This experiment in a line: Novel Modifiers of Survival Motor Neuron (SMN) Protein: Gene Identification via Genome-wide siRNA Screen.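 Note: luminescence tracks full-length SMN protein made from the SMN2 reporter.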 The following applies: HEK293T SMN2-luciferase reporter, siRNA knockdown, 72 h; actives lie on both sides. In short, it runs like this:
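Each of three siRNAs per gene is reverse-transfected (1 pmol) into reporter HEK293T cells whose luciferase output tracks SMN protein level. After 72 h culture, ONE-Glo luminescence is control-normalized, log10-transformed and MAD-standardized; Common Seed Analysis deprioritizes seed-driven hits.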
On the technique in general: A reporter such as luciferase makes a cellular process visible.
With GGAUAUGCGUGAAUUUCGATT against ERCC4, the median seed-adjusted z-score was inactive: -0.00878.
As for CCCAGAUCACGUCCACCUUTT against GGTLC1, the figure is inactive: -0.298; as for AGAAUGACAGGGUCCAGAATT against OGFR, inactive: -0.565; as for CCCUGAUAGAGAAACCCGATT against SIGLEC5, inactive: -0.615.
Next, CCUUCGAACAAAGAGUAGATT against MAP1LC3B: inactive: -0.0749; GCCUAUUUCCGCAGAAACATT against FOXP4: inactive: 0.588.
GGCUGAAGCUGACGAAAGATT against SNTG2: the median seed-adjusted z-score was inactive: 0.603.
Consider GGAGACAACUAAGGGAUUATT against MOGAT3, for which the median seed-adjusted z-score is inactive: -0.383.
GGUUUGGAAUGUUCGAGUUTT against SLC25A1: the median seed-adjusted z-score is inactive: 0.252.
For CCAAUGAUGUAUGAUCUAATT against UBE3A, the median seed-adjusted z-score is inactive: 0.0949.
Turning to GCUUAUGAGUUUGUUCGUATT against NARG1L, the median seed-adjusted z-score is inactive: 0.0121.
Take GGCUGAUCCUUUGCUAUGATT against CDC42BPB: the median seed-adjusted z-score is inactive: -0.556.
For GUUCUGCCCUCAUACCCUUTT against IL9R, the median seed-adjusted z-score is active: -1.33.
On to ACAGCACUCACCAUCCUUATT against CHRNA10, for which the median seed-adjusted z-score was inactive: 0.521.
As for GGAAAAGCUUUAAUCGACATT against ZNF193, the figure is inactive: 0.276.
As for CAACAAGAAUAUCCGCAAATT against EIF2AK3, the figure is inactive: -0.0208.
With GCAAUUUGGUGGUCAGAGATT against PCDHAC1, the median seed-adjusted z-score is inactive: -0.189.
CAGACUUUUAUAACCCUUUTT against CLDN7: the median seed-adjusted z-score is inactive: 0.0208.
In the case of CCCUGGUAGUUCCACACCATT against CRHBP, the median seed-adjusted z-score was inactive: -0.0443.
As for CCUACUAUGUGAGCAAUGATT against EEF1G, the median seed-adjusted z-score is inactive: -0.206.
As to UCAUUGUUGUGGGCCGAUATT against DDB2, the median seed-adjusted z-score was inactive: 0.
Regarding GCCAUGUGUUUAUCCUAAATT against DBI, the median seed-adjusted z-score is inactive: 0.0661.
On to GAUAGGACCUUGAUAUAUATT against ARPC3, for which the median seed-adjusted z-score is inactive: -0.237.
Turning to CCUCACGCAUCUAUAUUUATT against ANP32C, the median seed-adjusted z-score is inactive: -0.421.
Next, CGUCUAUACUUUGCGGAAATT against MAST2: inactive: 0.27; GGAUUAUGAGAGAUCCAGATT against NRAP: inactive: -0.205; GCUUUGAGGGUUUGAAGAATT against GSTM5: inactive: -0.861.
For the sequence GAGUCAUUCCUAACGUACATT against INADL, the median seed-adjusted z-score was inactive: 0.53.
Take CAGGUACAGCGCAUCGUUATT against EDC4: the median seed-adjusted z-score is inactive: 0.
As for GCGUGGAGAUCUUGCCUGUTT against CHPF, the median seed-adjusted z-score is inactive: 0.248.
Turning to CAACAUCUGCUACAAUGUATT against ACSS2, the median seed-adjusted z-score is inactive: 0.
As for GGACGAAAGAACUCAGGAATT against DYRK1B, the median seed-adjusted z-score is inactive: 0.29.
Turning to GGGUGAUAUAAAGUCAAAATT against SFRS6, the median seed-adjusted z-score is inactive: 0.378.
On to AGAAAUCGGUUUGAAGUUATT against TRMU, for which the median seed-adjusted z-score is inactive: 0.0312.
On to GGAAUAAAAUCACUCAAGATT against CHFR, for which the median seed-adjusted z-score is inactive: -0.673.
For the sequence CGAGAGCAAGUGUGAGUAUTT against ZNF295, the median seed-adjusted z-score is inactive: 0.371.
Consider GCCGUGUAUUUGGUCCGUUTT against NCBP1, for which the median seed-adjusted z-score is inactive: 0.785.
Regarding GCAGCUGUAAGGAACUUCATT against USP32, the median seed-adjusted z-score was inactive: 0.484.
With CAAUAUCUGCUGCGCGGAATT against OXT, the median seed-adjusted z-score was inactive: 0.553.
GGGCCGCUUUAGAAAGGUATT against SNX1: the median seed-adjusted z-score is inactive: 0.0261.
With CGGGAGCAUUGGAUGAGAATT against ARL8A, the median seed-adjusted z-score was inactive: -0.0844.
In the case of GGCACUUUUUCUCAGCUGATT against HBD, the median seed-adjusted z-score is inactive: 0.
As for GGCUUAUGACCGAGAAAAATT against ARHGAP18, the figure is inactive: 0.
As for GUAACACCAUAUAUCAAGATT against SNTB2, the figure is inactive: 0.268.
Consider GGAUCAAGAGAGAAGGUCATT against HELLS, for which the median seed-adjusted z-score is inactive: 0.192.
Consider GGCUUUACUCCGUAACAGATT against RHOA, for which the median seed-adjusted z-score is inactive: -0.219.
As for CAAUUAUUGCAGUGCGUAUTT against NEUROD6, the figure is inactive: -0.261; as for GGUUUUGAAAUUAUCCAAATT against STARD5, inactive: -0.0333.
For the sequence GACGAAUCACUGCAGUUUATT against GOSR2, the median seed-adjusted z-score is active: -1.25.
Turning to GGUUCUCUAUGGGCGCAUATT against HTR1A, the median seed-adjusted z-score is inactive: 0.
GGAGGAAUCUCCAAUGUAUTT against LYPLAL1: the median seed-adjusted z-score was inactive: -0.425.
In the case of GGGCUUCAGCUUAAAGGCATT against NUP62, the median seed-adjusted z-score was inactive: 0.
For GCAUUGUGACGGAUGCUAUTT against PCSK1, the median seed-adjusted z-score was inactive: 0.154.
As for GCUCACAGAUGAGUUCUAUTT against NXNL1, the figure is inactive: 0.334; as for CAGGCACUGUCUUUAAACATT against SERPINB9, inactive: 0; as for GGUUCAUCCUGGACCCGAATT against NCR1, inactive: -0.26.
As for GAAAUAAAUUCACAGUCAATT against FABP2, the figure is inactive: 0.
For GGACUUCUUUAGGCAGAUATT against NDUFA8, the median seed-adjusted z-score is inactive: -0.752.
As for GGACCAUUGUGCGUUUCAATT against SERPINA3, the figure is inactive: 0.125.
As for GCAAAUCAGAGGUUCAGAUTT against SQLE, the median seed-adjusted z-score is active: -1.14.
Take GGAAAUAGAAAACUCCGAATT against SPAG1: the median seed-adjusted z-score was inactive: 0.413.
Next, GCAAAUUGAUGAACCGGUUTT against CEP135: inactive: -0.2; GGAUGUUAUGGGAAAUGAATT against PPM1A: inactive: 0.0153.
CCUUGUACAUCGUGGGAUATT against PDSS2: the median seed-adjusted z-score is inactive: 0.111.
In the case of CCUUGAAUGCCGACAAGAATT against MATN3, the median seed-adjusted z-score is inactive: 0.0972.
As for CUCAUAUUCUUUUACGAUATT against EFHA2, the median seed-adjusted z-score was inactive: 0.166.
GAACCACAUUUAUUGGAUUTT against GPR82: the median seed-adjusted z-score was inactive: -0.83.
As for AGAUGUCCAGACCAAGAUATT against CREBL1, the figure is inactive: -0.348.
As to AGAACACCUUUAGAAAUAATT against TWIST1, the median seed-adjusted z-score was inactive: -0.159.
